In paper PMC8421392:
These are yes or no findings as the source states them, for the method shown. In cells and extracts the contact can be indirect. Some entries that bind do so weakly or less than the wild type. Sequences can lack the tags named with a protein.

Sequences of proteins named here, by UniProt entry; tags and fusion partners are left off. Residues count along the entry.
UniProt P06213, residues 28-1382: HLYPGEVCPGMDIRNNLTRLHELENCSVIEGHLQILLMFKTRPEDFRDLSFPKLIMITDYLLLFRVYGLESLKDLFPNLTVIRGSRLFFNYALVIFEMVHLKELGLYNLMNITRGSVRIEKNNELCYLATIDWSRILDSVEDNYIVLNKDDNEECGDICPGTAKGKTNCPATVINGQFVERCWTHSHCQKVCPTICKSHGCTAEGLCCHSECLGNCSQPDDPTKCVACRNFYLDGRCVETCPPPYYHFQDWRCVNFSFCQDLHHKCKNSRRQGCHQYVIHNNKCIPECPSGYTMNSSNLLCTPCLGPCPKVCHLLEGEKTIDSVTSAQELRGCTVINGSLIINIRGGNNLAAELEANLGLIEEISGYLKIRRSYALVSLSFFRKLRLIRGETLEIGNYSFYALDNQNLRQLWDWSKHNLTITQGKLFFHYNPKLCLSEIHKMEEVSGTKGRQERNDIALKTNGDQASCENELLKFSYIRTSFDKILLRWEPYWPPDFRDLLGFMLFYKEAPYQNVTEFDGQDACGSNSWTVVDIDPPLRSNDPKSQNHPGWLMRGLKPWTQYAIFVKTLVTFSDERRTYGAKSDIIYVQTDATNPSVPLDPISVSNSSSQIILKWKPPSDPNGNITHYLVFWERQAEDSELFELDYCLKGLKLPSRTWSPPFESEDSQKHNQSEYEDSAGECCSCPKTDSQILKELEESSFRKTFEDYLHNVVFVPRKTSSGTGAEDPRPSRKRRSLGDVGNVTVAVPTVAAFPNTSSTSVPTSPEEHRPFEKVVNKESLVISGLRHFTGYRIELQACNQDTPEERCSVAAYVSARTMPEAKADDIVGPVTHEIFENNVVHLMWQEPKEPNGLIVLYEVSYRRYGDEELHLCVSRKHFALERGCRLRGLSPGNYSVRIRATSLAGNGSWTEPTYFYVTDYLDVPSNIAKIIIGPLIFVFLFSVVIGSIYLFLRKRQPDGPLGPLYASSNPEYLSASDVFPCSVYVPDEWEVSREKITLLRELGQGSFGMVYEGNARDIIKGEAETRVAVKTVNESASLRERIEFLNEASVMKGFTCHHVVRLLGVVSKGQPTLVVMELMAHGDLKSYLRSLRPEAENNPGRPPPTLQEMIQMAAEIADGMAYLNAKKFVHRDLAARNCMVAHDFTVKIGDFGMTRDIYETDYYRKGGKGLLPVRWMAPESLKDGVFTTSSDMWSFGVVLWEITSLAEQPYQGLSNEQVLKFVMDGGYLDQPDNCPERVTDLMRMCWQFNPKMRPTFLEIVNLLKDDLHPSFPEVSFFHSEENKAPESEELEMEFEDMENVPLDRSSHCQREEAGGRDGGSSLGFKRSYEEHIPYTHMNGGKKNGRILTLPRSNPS
UniProt P08069, residues 31-1367: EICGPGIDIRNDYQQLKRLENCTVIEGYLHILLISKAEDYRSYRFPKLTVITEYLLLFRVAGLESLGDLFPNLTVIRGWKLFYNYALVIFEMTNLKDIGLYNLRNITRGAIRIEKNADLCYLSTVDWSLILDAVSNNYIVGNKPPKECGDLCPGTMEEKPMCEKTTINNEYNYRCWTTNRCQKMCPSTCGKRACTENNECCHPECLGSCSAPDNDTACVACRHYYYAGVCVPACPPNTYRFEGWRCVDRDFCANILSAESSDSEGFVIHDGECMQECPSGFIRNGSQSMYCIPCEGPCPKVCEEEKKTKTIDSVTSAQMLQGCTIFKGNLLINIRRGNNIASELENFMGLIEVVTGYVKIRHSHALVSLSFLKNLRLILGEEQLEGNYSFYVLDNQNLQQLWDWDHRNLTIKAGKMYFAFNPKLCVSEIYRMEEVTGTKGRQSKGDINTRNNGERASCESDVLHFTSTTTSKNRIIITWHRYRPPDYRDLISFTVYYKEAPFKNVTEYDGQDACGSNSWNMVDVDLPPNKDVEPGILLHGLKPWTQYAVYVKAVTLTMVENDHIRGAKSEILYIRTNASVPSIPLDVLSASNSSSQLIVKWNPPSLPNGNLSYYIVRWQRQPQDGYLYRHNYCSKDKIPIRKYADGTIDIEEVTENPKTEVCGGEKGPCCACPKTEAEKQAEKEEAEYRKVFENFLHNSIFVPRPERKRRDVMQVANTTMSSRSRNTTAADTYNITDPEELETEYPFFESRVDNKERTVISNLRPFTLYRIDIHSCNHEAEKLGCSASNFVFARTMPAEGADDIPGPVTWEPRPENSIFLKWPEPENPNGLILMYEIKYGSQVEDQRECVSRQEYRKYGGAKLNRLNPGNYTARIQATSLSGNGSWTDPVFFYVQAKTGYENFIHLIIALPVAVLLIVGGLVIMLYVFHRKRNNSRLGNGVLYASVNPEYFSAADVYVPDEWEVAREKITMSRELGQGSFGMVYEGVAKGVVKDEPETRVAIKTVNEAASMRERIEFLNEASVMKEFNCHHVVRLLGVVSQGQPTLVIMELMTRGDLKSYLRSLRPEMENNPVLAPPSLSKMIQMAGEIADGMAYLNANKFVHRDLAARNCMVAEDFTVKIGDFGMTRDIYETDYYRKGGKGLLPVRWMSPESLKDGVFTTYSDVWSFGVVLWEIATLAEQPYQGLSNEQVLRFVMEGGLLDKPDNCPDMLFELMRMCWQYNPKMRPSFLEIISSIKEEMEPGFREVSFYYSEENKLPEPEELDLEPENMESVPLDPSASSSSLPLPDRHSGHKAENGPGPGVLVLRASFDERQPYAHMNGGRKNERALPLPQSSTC
UniProt Q60751, residues 31-1373: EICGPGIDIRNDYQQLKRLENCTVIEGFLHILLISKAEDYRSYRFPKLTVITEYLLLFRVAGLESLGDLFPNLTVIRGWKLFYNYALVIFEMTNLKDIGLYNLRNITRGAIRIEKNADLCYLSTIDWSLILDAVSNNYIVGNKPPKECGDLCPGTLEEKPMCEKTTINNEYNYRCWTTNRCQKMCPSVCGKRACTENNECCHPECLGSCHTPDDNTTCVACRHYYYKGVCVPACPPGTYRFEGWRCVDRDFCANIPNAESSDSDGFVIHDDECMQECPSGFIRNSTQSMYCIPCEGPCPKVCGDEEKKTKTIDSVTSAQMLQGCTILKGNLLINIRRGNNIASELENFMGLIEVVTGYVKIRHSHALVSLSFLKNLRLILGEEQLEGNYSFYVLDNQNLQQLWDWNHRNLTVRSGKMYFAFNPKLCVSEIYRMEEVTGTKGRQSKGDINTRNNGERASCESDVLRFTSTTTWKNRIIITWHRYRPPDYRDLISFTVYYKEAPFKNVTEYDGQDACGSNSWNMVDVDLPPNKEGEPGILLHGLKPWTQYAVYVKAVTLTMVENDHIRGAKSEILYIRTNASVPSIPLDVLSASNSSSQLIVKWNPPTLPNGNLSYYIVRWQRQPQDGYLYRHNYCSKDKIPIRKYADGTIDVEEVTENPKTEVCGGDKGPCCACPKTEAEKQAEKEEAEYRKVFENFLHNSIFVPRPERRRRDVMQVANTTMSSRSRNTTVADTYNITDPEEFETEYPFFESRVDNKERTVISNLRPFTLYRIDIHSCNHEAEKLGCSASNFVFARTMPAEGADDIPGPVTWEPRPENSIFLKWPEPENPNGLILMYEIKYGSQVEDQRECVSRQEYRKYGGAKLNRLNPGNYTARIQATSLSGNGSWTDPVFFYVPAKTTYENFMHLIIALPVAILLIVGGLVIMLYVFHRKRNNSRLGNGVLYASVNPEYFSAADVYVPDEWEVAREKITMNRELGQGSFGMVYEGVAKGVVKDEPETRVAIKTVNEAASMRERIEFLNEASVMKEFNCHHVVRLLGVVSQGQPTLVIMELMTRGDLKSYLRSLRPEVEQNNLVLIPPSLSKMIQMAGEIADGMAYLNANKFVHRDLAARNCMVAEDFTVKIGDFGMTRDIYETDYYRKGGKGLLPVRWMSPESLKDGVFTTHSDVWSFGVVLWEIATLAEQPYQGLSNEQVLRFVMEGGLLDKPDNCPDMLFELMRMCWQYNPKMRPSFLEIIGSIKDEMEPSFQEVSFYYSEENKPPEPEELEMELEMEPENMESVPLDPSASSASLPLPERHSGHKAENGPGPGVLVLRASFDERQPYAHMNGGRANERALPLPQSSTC
UniProt P15208, residues 28-1372: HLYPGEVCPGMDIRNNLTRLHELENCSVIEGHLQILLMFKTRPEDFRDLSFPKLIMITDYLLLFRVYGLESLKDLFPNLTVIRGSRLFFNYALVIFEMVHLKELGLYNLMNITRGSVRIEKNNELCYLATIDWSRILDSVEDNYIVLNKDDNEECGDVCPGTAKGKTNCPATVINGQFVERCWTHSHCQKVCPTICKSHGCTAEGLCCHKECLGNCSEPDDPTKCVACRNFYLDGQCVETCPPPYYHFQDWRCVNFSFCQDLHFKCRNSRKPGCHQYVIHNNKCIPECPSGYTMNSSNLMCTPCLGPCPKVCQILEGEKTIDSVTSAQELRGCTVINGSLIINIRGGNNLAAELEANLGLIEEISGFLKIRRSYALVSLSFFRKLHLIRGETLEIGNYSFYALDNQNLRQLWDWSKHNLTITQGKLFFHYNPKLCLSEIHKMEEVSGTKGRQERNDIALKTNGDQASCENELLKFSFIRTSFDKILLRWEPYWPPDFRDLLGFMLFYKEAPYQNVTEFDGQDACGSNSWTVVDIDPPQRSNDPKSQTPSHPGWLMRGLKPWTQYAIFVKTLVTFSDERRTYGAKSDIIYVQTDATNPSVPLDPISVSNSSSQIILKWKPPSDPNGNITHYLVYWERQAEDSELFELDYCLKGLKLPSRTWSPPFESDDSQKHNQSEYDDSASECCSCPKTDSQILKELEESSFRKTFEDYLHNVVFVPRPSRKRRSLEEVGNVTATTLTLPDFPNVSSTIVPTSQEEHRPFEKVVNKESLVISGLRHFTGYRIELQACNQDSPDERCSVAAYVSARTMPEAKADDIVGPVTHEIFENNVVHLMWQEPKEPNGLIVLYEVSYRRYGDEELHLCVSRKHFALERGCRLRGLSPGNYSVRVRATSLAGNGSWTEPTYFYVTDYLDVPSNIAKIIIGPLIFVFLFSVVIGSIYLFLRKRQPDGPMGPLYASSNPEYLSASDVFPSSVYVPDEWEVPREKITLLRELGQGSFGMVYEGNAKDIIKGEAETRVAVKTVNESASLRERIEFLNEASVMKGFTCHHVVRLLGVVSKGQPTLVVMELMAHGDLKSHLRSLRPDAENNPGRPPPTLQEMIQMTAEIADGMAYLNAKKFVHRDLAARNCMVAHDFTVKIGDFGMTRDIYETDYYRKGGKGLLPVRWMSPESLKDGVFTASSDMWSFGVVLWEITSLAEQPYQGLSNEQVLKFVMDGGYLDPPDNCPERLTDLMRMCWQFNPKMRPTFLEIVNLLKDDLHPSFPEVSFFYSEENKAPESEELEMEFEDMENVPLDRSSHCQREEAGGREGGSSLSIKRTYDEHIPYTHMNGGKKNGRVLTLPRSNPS

Key:
[1] = molecular target: T1, Flag-tagged osteocalcin (Flag-OCN protein) (UniProt P86546); test: co-IP; HEK293 cells transfected with V5-IGF1R or GFP-IR, two days later treated with Flag-tagged OCN protein, washed with cold PBS, cross-linked with DSP at 4 °C for 2 h; lysates IPed with anti-Flag resin and blotted; only the target purified
T1 sequence: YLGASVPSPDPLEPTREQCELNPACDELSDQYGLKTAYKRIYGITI

[2] = molecular target: T2, Flag-GPRC6A (G protein-coupled receptor family C group 6 member A) (UniProt Q5T6X5); test: co-IP; HEK293 cells transfected with V5-tagged IGF1R and Flag-GPRC6A plasmids; lysates IPed with anti-Flag resin and blotted
T2 sequence: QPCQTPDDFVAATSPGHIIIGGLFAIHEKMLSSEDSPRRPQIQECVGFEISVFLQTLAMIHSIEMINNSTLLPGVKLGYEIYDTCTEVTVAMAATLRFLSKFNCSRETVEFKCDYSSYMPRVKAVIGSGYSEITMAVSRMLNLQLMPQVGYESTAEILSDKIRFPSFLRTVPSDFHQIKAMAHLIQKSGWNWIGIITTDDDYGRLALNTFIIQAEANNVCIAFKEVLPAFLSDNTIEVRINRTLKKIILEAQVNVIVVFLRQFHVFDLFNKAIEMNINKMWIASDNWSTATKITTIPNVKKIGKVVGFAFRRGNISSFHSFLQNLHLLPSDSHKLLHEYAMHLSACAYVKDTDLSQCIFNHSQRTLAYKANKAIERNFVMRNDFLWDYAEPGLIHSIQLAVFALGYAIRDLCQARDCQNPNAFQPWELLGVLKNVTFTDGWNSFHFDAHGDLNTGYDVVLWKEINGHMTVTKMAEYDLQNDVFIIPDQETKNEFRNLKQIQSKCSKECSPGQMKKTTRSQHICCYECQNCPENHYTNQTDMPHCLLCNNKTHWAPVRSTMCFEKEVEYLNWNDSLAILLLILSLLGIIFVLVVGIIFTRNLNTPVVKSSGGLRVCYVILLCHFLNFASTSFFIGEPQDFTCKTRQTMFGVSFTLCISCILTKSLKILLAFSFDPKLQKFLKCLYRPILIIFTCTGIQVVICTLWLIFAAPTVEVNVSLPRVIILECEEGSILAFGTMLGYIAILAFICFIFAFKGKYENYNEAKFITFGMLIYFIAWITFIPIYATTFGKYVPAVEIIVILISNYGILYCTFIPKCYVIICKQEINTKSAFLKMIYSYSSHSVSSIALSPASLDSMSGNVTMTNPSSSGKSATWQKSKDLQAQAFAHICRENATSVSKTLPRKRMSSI

[3] = molecular target: T1, Flag-tagged osteocalcin (Flag-OCN protein); test: co-IP; primary hepatocytes treated with Flag-tagged OCN protein, washed with cold PBS, cross-linked with DSP at 4 °C for 2 h; lysates IPed with anti-Flag resin and blotted for endogenous IR and IGF1R; only the target purified

binding [1]	binding [2]	binding [3]	Substance
binds			GFP-IR (insulin receptor) (from UniProt P06213 28-1382)
binds	binds		V5-tagged IGF1R (insulin-like growth factor 1 receptor) (from UniProt P08069 31-1367)
		binds	endogenous IGF1R (insulin-like growth factor 1 receptor, primary hepatocytes) (from UniProt Q60751 31-1373)
		binds	endogenous IR (insulin receptor, primary hepatocytes) (from UniProt P15208 28-1372)
